Laboratory results from publication PMC7884431.

Key:
[1] = test system: RFL29a (Rf3); assay: EMSA; conditions: 28.1 nM-1.8 uM protein; Binding buffer 1x THE (34 mM Tris, 66 mM HEPES, 0.1 mM EDTA, pH 8), 0.2 M NaCl, 5 mM DTT, 5 mg/mL heparin, 0.1 mg/mL BSA; recombinant protein; protein details: N-terminal 6xHis-MBP (pETG-41K); label: 5'-fluorescein
[2] = test system: RFL79 (Rf1); assay: EMSA; conditions: 28.1 nM-1.8 uM protein; Binding buffer 1x THE (34 mM Tris, 66 mM HEPES, 0.1 mM EDTA, pH 8), 0.2 M NaCl, 5 mM DTT, 5 mg/mL heparin, 0.1 mg/mL BSA; recombinant protein; protein details: N-terminal 6xHis-MBP (pETG-41K); label: 5'-fluorescein

Sequence	binding result [1]	binding result [2]
CCACUAGCAGGUUUACUGCUUUCU [BS orf256]	no binding	no binding
CUGUAAAUCAAGAAUUCCUCGAAGA [BS RFL79 (orf279)]	binds	–
CUUCACCUGUGCACUUAUUUAUGUAU [BS RFL29a (orf279)]	–	binds

Construct, isoform or probe ends are uncertain for at least one entry. Negatives hold for the conditions tested.
